These are yes or no findings as the source states them, for the method shown. In cells and extracts the contact can be indirect. For some of these results: A result given as binding can be weak or reduced; the word gives no strength. Tags and fused reporters may be left off the sequences shown.
B1: GFP-nsp4 (nonstructural protein 4 of TGEV) (protein, UniProt P0C6Y5 2389-2878)
chain: SGFFDVITQLKQIVILVFVFIFICGLCSVYSVATQSYIESAEGYDYMVIKNGIVQPFDDTISCVHNTYKGFGDWFKAKYGFIPTFGKSCPIVVGTVFDLENMRPIPDVPAYVSIVGRSLVFAINAAFGVTNMCYDHTGNAVSKDSYFDTCVFNTACTTLTGLGGTIVYCAKQGLVEGAKLYSDLMPDYYYEHASGNMVKLPAIIRGLGLRFVKTQATTYCRVGECIDSKAGFCFGGDNWFVYDNEFGNGYICGNSVLGFFKNVFKLFNSNMSVVATSGAMLVNIIIACLAIAMCYGVLKFKKIFGDCTFLIVMIIVTLVVNNVSYFVTQNTFFMIIYAIVYYFITRKLAYPGILDAGFIIAYINMAPWYVITAYILVFLYDSLPSLFKLKVSTNLFEGDKFVGNFESAAMGTFVIDMRSYETIVNSTSIARIKSYANSFNKYKYYTGSMGEADYRMACYAHLGKALMDYSVNRTDMLYTPPTVSVNSTLQ
B2: Flag-nsp4 (nonstructural protein 4 of TGEV) (protein, UniProt P0C6Y5 2389-2878)
chain: B1 chain

How the values were obtained:
[1] = biological target: HA-TMEM198△OR1; assay: co-IP; HEK-293T cells transfected with GFP- or HA-tagged TMEM198 truncations and Flag-nsp4 or GFP-nsp4; cell extracts 24h after transfection; IP-western with indicated antibodies (the precipitating antibody is not named)
[2] = biological target: Flag-TMEM198 (transmembrane protein 198); assay: co-IP; 293T cells doubly transfected with Flag-TMEM198 and the tagged viral protein; NP-40 lysis buffer; co-IP with antibody to the Flag tag (anti-tag magnetic beads, overnight at 4°C, five washes with lysis buffer); Western blot
[3] = biological target: GFP-TMEM198-1; assay: co-IP; HEK-293T cells transfected with GFP- or HA-tagged TMEM198 truncations and Flag-nsp4 or GFP-nsp4; cell extracts 24h after transfection; IP-western with indicated antibodies (the precipitating antibody is not named)

Binder	binding [1]	binding [2]	binding [3]
B1	no binding	binds	
B2	no binding		binds

— PMC12157921
